Laboratory results: PubChem BioAssay AID1347075 (National Center for Advancing Translational Sciences (NCATS), 2019)
In all, about 400,000 compounds went through this assay and about 5,500 (1.4%) were called active. This list was built around the results that the source calls inconclusive (neither active nor inactive); the mix of calls is not that of the screen. The call rests on the fitted dose curve; in most records, active means well fitted cell-killing curve with a large enough effect; inconclusive means small, poorly fitted or top-dose-only effect, or effect the other way; inactive means flat fitted curve, though single readings scatter. Where the call is inconclusive, the potency comes from a doubtful curve fit.
On the % scale 0 is the no-effect control and ±100 the full control effect; potency means the concentration at half of the fitted maximal effect.

Test: qHTS assay for MDR1-selective chemotherapeutics: Primary screen using the parental adenocarcinoma cell KB-3-1; further: nearly all actives have a fitted effect of over 60% in size
Details: KB-3-1 viability, CellTiter-Glo ATP luminescence, 72 h; activity change, negative = cytotoxic: at 46.1 µM (top of the series)
How it was run: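 Luminescent ATP read-out (CellTiter-Glo) measures survival of drug-naive KB-3-1 cells after 72 h compound exposure at 37 °C. Titration series was screened from lowest to highest concentration, with DMSO vehicle plates as background controls.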
For `CCOC(=O)c1csc(NC(=O)CCS(=O)(=O)c2ccc(Cl)cc2)n1`, the “activity change, negative = cytotoxic” value was inactive: -0.433%. With `Cc1ccc(C(=O)N2CCCC(Nc3cccc(F)c3)C2)cc1N1CCNC1=O` (configuration not stated) the Potency was inconclusive: 16.4 µM [rising, partial curve, poor fit]. In the case of `COc1ccccc1CNS(=O)(=O)c1cc(-c2cc(C)no2)ccc1C(C)C`, the Potency was inconclusive: 29.1 µM [cytotoxic, single point]. For `COc1ccccc1NC(=O)CCN1CCN(Cc2ccccc2)CC1`, the “activity change, negative = cytotoxic” value was inactive: -2.49%. In the case of `N#Cc1ccc(C(=O)N2CCCCC2c2cc(C(=O)Nc3ccc4c(c3)OCO4)no2)cc1` (configuration not stated), the “activity change, negative = cytotoxic” value was inactive: 0%. For `Cc1ccsc1C1NC(=O)c2c(sc3c2CCN(C)C3)N1` (configuration not stated), the Potency was inconclusive: 20.6 µM [cytotoxic, single point]. For `Cc1onc(-c2ccccc2Cl)c1C(=O)Oc1cc(N)n(S(=O)(=O)c2ccc(F)cc2)n1`, the “activity change, negative = cytotoxic” value was inactive: 4.94%. In the case of `COc1ccc(NC(=O)c2c(NCc3cccs3)sc3c2CCCCC3)c(OC)c1`, the “activity change, negative = cytotoxic” value was inactive: 11.9%. For `Cc1cc(C)c(S(=O)(=O)N2CCCCC2CCNC(=O)C(=O)NCCN2CCOCC2)c(C)c1` (configuration not stated), the “activity change, negative = cytotoxic” value was inactive: 2.03%. In the case of `Cn1c2ccccc2c2n[nH]c(=S)nc21`, the Potency was inconclusive: 13 µM [cytotoxic, partial curve]. In the case of `COc1ccc(C(c2sc3ncnn3c2O)N2CC(C)OC(C)C2)cc1OC` (configuration not stated), the Potency was inconclusive: 16.4 µM [cytotoxic, partial curve, poor fit]. With `CN(C)c1ccc(C2NC(=O)c3ccccc3N2)cc1` (configuration not stated) the Potency was inconclusive: 29.1 µM [cytotoxic, single point]. In the case of `CCCCOCCCN1CC(=O)N2[C@@H](Cc3c([nH]c4ccccc34)C2(C)C)C1=O`, the “activity change, negative = cytotoxic” value was inactive: 2.1%. With `COc1ccc(Cn2c(=O)cc(N)n(-c3ccccc3C)c2=O)cc1` the Potency was inconclusive: 18.4 µM [cytotoxic, single point]. With `COc1ccc(/C=C(/NC(=O)c2ccc(OC)cc2)C(=O)NCCc2c[nH]c3ccccc23)cc1` the Potency was inconclusive: 29.1 µM [rising, single point]. For `CC(C)c1nc(SCC(=O)N2CCCc3ccccc32)c2c(=O)n(C)c(=O)n(C)c2n1`, the Potency was inconclusive: 29.1 µM [cytotoxic, single point]. In the case of `CC1CCc2nc(/C(C#N)=C/c3cccnc3)sc2C1` (configuration not stated), the “activity change, negative = cytotoxic” value was inactive: -11.5%. For `CCCOc1ccc(-c2nc(C#N)c(NCCCn3ccnc3)o2)cc1`, the Potency was inconclusive: 0.731 µM [cytotoxic, full curve, poor fit]. For `Cc1[nH]n(-c2ccccc2)c(=O)c1/C=N/NC(=O)c1ccccc1F`, the Potency was inconclusive: 18.4 µM [cytotoxic, single point]. With `CN(C)c1ccc(NC(=O)Nc2ccc3snnc3c2)cc1` the “activity change, negative = cytotoxic” value was inactive: -1.45%. In the case of `C/C=C/NNC(=O)Cc1ccc(OC)cc1`, the Potency was inconclusive: 10.3 µM [cytotoxic, partial curve, poor fit]. With `C/C(=N/NC(=O)c1ccc(C(C)(C)C)cc1)c1ccccn1` the Potency was active: 2.59 µM. For `CN(C)c1ccc(/C=C2\C=Cc3cc([N+](=O)[O-])ccc32)cc1`, the Potency was inconclusive: 29.1 µM [rising, single point]. In the case of `Cc1ccc(C(=O)NCCN2C3=NC[C@H](C(C)C)N3C[C@H]2Cc2ccc(O)cc2)cc1Br`, the Potency was inconclusive: 16.4 µM [cytotoxic, single point]. In the case of `COCCn1c(SCC(=O)Nc2ccc(NC(C)=O)cc2)nc2c([nH]c3ccccc32)c1=O`, the Potency was inconclusive: 29.1 µM [rising, single point]. For `CCCN1C(=O)C(=O)c2cc(Cl)ccc21`, the “activity change, negative = cytotoxic” value was inactive: 0%. In the case of `CCCc1c(-c2ccc(F)cc2)ncn1Cc1ccccc1OC`, the Potency was inconclusive: 18.4 µM [cytotoxic, single point]. For `COc1cc(C2C3=C(Nc4nc(N)[nH]c(=O)c42)c2ccccc2C3=O)ccc1O` (configuration not stated), the “activity change, negative = cytotoxic” value was inactive: -4.5%. With `COc1ccc(S(=O)(=O)N2CCOCC2)cc1NC(=O)Cc1sc(C)nc1-c1ccc(F)cc1` the Potency was inconclusive: 29.1 µM [rising, single point]. In the case of `COc1ccc(N=Cc2c(O)n(-c3ccc(OC)cc3)c(=O)c3ccccc23)cc1`, the “activity change, negative = cytotoxic” value was inactive: -16.8%. In the case of `COc1cc(/C=N/n2cnc3scc(-c4cccs4)c3c2=O)cc(OC)c1OC`, the Potency was active: 4.61 µM. With `O=C(C[n+]1ccc2ccccc2c1)c1ccc(NC(=O)c2ccccc2)cc1` the Potency was active: 20.6 µM. With `CCOC(=O)Cc1csc(NC(=O)Nc2ccc(OC(F)(F)F)cc2)n1` the Potency was inconclusive: 20.6 µM [cytotoxic, single point]. With `CCCCOc1ccc(Cc2c(O)nc(SC)[nH]c2=O)cc1` the activity change, negative = cytotoxic was inconclusive: 20.7%. With `CC(C)(C)NC(=O)C(c1ccc(-c2ccccc2)cc1)N(C[C@H]1CC[C@@H]([C@@H]2CC[C@H](CO)O2)O1)C(=O)c1ccc(-c2ccccc2)cc1` (some centres not stated) the Potency was inconclusive: 18.4 µM [cytotoxic, single point]. For `CCN1C(=O)[C@@H]2[C@@H](c3ccc(-c4ccc(Cl)c(Cl)c4)cc3)N3CCC[C@@]3(C(=O)OC)[C@@H]2C1=O`, the “activity change, negative = cytotoxic” value was inactive: -12.5%. For `CCOCCCN(C)C1CCN(C(=O)c2oc3ccccc3c2NC(=O)COc2ccc(F)cc2)CC1`, the “activity change, negative = cytotoxic” value was inactive: -6.01%. For `O=C(NC1CCC(O)CC1)c1cc(-c2ccc(Cl)cc2)nc2ccccc12` (configuration not stated), the “activity change, negative = cytotoxic” value was inactive: 36.5%. In the case of `CCCc1cc(=O)[nH]c(SCc2nc(-c3ccccc3)no2)n1`, the “activity change, negative = cytotoxic” value was inactive: -4.11%. For `Cc1ccnc2nc(C(=O)OCC(=O)N3CCc4ccccc43)nn12`, the “activity change, negative = cytotoxic” value was inactive: 0.359%. With `Cc1ccc(C2=NNC(C(O)C(O)C(O)C(O)CO)S2)cc1` (configuration not stated) the “activity change, negative = cytotoxic” value was inactive: 0.656%. With `CCCCCCNC(=O)CC(c1ccccc1)c1cc(Br)ccc1O` (configuration not stated) the Potency was inconclusive: 16.4 µM [cytotoxic, single point]. In the case of `Cc1ccc(-c2nc(CS(=O)(=O)CC(=O)N3CCN(c4ccccc4)CC3)c(C)o2)cc1`, the Potency was inconclusive: 13 µM [cytotoxic, partial curve, poor fit]. For `COc1ccc(CNC(=O)c2cc3c(=O)n(Cc4ccc(OC)cc4)ccc3nc2C)cc1`, the Potency was active: 2.59 µM. For `COC(=O)C1=C(N)c2c(F)cccc2C1(C#N)c1ccc(F)cc1` (configuration not stated), the Potency was inconclusive: 29.1 µM [cytotoxic, single point]. For `Cc1nc(N=C(N)N)nc2ccccc12`, the Potency was active: 8.2 µM. In the case of `CC(=O)Nc1nc(NC(=O)/C=C/c2ccccc2)n(-c2ccccc2)n1`, the Potency was inconclusive: 29.1 µM [cytotoxic, single point].
